Results taken from paper PMC4716144.

Amino acid sequences for entries named in this document (tags omitted). Residues count along the entry.
UniProt Q9QYR6: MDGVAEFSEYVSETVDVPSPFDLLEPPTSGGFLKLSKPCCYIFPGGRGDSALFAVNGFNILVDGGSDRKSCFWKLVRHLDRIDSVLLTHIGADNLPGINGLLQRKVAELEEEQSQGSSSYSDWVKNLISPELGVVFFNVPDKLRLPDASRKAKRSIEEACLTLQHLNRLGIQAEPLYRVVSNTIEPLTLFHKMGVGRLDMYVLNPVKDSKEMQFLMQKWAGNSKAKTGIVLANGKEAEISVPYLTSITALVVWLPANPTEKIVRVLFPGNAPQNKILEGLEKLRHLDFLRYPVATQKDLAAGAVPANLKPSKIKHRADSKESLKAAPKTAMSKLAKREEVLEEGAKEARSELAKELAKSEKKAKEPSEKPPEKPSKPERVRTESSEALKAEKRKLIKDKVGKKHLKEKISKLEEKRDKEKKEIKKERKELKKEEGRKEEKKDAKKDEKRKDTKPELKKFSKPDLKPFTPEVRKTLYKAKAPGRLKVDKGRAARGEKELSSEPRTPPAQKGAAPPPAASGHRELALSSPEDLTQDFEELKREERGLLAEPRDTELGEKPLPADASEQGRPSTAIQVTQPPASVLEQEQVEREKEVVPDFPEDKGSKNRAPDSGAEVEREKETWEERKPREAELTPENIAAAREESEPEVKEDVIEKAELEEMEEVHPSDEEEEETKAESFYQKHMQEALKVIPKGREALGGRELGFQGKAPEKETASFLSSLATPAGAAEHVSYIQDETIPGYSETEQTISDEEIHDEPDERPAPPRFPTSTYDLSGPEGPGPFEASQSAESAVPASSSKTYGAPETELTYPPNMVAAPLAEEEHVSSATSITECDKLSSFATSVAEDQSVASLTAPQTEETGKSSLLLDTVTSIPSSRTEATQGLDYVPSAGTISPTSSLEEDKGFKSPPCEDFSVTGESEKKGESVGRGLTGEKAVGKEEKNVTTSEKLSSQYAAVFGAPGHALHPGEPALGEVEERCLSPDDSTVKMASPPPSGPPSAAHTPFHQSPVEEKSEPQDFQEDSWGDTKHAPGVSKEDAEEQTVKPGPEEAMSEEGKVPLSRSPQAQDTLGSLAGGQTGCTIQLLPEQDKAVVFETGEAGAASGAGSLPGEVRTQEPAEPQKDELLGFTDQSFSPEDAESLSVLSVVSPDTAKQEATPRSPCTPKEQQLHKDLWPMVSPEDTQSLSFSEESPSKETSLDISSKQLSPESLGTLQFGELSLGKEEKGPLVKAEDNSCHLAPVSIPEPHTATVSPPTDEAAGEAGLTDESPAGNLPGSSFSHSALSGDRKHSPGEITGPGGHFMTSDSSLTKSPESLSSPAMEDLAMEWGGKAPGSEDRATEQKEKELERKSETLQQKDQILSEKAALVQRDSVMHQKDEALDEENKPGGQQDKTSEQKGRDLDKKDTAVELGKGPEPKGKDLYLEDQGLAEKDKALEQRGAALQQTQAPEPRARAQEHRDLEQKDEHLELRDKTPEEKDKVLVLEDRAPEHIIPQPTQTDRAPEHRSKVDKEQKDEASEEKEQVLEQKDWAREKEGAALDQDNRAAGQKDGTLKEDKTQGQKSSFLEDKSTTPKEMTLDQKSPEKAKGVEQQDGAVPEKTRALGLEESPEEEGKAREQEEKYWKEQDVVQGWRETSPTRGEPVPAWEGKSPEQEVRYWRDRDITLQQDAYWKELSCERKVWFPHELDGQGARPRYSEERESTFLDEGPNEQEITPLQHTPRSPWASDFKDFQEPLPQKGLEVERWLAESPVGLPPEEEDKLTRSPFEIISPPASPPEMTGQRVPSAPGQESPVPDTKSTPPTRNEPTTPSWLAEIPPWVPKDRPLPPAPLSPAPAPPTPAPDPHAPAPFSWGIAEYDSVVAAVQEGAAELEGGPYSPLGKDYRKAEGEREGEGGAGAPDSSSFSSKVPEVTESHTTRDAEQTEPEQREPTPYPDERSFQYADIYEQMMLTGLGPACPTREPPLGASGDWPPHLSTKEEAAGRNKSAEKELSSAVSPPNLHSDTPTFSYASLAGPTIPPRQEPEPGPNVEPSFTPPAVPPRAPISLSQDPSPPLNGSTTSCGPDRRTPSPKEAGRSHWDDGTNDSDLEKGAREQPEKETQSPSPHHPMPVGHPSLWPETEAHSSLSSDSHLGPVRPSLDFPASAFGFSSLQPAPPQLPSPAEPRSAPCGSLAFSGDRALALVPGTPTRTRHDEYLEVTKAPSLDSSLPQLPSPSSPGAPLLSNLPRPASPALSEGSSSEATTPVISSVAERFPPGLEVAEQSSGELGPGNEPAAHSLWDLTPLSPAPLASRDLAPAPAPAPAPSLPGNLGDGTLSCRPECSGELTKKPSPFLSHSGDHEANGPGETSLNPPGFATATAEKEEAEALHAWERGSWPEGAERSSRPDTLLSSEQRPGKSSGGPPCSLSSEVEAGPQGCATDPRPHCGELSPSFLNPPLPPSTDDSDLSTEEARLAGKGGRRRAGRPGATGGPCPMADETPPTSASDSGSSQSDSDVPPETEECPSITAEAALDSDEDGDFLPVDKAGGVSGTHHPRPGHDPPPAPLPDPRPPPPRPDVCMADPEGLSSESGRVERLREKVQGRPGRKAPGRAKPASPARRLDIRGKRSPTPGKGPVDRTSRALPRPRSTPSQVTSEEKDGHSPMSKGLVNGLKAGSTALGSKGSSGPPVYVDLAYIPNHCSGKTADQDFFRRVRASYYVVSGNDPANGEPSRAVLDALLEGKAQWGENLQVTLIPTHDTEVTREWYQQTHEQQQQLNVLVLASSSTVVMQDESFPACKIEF
UniProt Q8VHK1: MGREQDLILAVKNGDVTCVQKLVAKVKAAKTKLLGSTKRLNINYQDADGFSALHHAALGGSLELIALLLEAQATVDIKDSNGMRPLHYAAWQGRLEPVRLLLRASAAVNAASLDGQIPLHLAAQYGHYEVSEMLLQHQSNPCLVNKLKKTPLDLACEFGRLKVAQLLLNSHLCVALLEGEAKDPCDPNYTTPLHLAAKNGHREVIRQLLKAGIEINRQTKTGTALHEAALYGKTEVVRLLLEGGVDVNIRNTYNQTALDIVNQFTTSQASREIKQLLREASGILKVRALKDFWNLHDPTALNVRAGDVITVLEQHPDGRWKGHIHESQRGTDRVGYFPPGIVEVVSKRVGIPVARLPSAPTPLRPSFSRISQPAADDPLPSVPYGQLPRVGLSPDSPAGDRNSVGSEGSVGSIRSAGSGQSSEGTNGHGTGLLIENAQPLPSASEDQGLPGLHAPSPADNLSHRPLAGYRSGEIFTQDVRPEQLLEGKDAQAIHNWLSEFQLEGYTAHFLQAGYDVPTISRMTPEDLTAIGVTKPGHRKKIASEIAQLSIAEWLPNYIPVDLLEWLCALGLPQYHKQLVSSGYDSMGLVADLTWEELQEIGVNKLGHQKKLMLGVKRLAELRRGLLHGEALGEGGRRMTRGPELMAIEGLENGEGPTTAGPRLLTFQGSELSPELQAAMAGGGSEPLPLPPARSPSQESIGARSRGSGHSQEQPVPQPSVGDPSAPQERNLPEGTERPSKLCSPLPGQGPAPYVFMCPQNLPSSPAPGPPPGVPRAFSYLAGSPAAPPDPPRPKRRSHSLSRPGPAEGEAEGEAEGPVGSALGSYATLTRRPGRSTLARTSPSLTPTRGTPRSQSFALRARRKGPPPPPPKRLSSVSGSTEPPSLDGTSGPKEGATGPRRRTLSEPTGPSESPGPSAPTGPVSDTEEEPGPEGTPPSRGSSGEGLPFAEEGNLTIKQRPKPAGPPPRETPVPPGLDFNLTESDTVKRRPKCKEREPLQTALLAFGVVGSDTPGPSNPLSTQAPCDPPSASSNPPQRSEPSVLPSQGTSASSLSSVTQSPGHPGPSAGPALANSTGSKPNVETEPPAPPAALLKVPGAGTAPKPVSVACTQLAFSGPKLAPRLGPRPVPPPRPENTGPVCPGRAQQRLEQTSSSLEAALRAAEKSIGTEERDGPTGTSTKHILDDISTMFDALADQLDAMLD
UniProt P15208, residues 28-1372: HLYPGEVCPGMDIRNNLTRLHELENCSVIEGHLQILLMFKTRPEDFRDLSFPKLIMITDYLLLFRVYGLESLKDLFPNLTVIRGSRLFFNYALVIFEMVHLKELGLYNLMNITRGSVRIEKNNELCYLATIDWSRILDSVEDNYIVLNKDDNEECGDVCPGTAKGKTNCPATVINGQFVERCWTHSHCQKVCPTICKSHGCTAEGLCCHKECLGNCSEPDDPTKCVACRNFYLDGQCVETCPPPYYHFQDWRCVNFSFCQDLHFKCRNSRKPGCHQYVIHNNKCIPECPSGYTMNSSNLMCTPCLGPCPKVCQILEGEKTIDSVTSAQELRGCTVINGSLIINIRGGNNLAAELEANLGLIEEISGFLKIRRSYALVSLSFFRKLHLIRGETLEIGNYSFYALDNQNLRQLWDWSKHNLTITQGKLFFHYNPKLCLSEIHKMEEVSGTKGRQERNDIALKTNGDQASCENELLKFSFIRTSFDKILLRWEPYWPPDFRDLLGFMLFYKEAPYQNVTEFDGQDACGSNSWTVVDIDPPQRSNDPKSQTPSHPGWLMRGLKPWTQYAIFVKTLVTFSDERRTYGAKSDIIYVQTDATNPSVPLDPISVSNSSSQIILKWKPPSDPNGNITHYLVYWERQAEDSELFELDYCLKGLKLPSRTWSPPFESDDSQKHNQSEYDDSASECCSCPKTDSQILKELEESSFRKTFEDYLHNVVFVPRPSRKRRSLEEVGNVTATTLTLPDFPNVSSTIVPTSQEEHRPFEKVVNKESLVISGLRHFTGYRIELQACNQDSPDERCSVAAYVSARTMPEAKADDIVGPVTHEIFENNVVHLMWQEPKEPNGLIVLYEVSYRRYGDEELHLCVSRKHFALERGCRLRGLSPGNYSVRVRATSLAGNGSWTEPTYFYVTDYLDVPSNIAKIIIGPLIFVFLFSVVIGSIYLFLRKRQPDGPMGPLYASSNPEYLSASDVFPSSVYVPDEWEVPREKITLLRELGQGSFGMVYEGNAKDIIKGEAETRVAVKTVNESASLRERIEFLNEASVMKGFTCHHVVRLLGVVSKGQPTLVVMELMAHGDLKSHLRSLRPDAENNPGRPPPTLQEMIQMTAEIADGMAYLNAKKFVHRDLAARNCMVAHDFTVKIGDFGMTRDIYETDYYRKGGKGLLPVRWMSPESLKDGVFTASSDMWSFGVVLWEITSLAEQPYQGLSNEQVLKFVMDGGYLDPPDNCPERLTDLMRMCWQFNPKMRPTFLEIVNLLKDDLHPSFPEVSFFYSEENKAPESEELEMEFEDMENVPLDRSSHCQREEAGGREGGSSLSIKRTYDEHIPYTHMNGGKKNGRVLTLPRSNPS
UniProt P54729: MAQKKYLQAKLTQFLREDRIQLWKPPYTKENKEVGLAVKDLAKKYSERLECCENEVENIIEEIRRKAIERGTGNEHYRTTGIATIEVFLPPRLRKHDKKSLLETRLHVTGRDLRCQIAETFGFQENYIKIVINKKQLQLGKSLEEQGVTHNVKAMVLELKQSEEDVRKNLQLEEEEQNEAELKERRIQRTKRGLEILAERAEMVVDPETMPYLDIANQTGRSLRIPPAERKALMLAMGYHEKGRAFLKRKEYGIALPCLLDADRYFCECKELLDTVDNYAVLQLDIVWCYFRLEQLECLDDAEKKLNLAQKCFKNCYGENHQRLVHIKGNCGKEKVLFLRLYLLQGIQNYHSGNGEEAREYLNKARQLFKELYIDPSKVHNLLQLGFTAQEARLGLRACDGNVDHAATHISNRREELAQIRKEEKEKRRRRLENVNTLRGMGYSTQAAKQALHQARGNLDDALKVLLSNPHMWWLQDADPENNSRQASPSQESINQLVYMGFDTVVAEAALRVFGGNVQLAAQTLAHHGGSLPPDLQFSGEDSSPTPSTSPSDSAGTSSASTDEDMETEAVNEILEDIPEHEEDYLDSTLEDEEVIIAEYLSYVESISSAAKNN
UniProt P59048: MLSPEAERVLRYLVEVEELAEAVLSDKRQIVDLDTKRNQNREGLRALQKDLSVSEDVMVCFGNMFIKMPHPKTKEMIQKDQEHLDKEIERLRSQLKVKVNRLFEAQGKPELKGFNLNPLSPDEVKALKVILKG

Tests used:
[1] = target: T1, G protein-coupled receptor kinase interacting protein 2 (mouse (endogenous in pancreas)) (UniProt Q9JLQ2); experiment: affinity purification with mass spectrometry; anti-GIT2 immunoprecipitation (pre-immune IgG as negative control) from lysates of whole pancreas of WT or db/db mice, 1 mg/ml protein, 16 h at 4°C, protein A/G agarose, eluted with 4% CHAPS-8M urea, normalised for GIT2 content; nano LC-MS/MS, MASCOT
T1 sequence: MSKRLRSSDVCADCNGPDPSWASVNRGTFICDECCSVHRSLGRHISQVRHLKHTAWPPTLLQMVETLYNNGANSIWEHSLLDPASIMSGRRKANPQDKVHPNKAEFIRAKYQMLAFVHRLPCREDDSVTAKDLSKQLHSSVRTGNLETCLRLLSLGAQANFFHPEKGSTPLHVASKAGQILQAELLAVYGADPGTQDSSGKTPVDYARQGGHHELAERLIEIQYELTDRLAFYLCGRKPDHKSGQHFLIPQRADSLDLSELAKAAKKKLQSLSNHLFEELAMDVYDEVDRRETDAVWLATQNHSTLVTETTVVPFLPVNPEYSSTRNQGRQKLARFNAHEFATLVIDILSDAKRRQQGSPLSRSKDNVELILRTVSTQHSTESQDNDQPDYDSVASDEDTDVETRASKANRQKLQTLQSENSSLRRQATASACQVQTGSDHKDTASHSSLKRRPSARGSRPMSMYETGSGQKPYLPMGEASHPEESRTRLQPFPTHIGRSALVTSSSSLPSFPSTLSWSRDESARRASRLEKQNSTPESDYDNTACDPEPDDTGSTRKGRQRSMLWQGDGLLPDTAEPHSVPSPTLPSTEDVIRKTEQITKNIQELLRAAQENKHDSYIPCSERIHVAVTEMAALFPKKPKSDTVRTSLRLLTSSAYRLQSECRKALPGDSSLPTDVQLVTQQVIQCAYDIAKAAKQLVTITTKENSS

[2] = target: T1, G protein-coupled receptor kinase interacting protein 2 (mouse (endogenous in pancreas)); experiment: affinity purification with mass spectrometry; as a1, the sample from pancreas of diabetic db/db mice alone (153 co-precipitating proteins), for the proteins that the paper calls lost with metabolic dysfunction

Molecule: microtubule-associated protein 1 A (from UniProt Q9QYR6 1-2776)
binding [1]: binds

B1: signal sequence receptor delta (protein, UniProt Q62186 24-172)
chain: ACLEPQITPSYYTTSDAVISTETVFIVEISLTCKNRVQNMALYADVSGKQFPVTRGQDVGRYQVSWSLEHKSAHAGTYEVRFFDEESYSLLRKAQRNNEDVSIIPPLFTVSVDHRGTWNGPWVSTEVLAAVIGIVIYYLAFSAKSHIQA
binding [2]: no binding (only pancreas of diabetic db/db mice) | binding [1]: binds

B4: eukaryotic translation initiation factor 2B (Eif2b2) (protein, UniProt Q99LD9 1-351)
chain: MPGAAAKGSELSERIEGFVETLKRGGGQRSSEDMARETLGLLRRLITDHHWNNAGDLMDLIRREGRRMTAAQPSETTVGNMVRRVLKIIREEYGRLHGRSDESDQQESLHKLLTSGGLSEDFSFHFAPLKANIIEAINELLVELEGTMENIAAQALEHIHSNEVIMTIGYSRTVEAFLKEAARKRKFHVIVAECAPFCQGHEMAVNLSKEGIETTVMTDAAIFAVMSRVNKVIIGTKTILANGSLRAVAGTHTLALAAKHHSTPLIVCAPMFKLSPQFPSEEDSFHKFVAPEEVLPFTEGDILEKVSVHCPVFDYVPPDLITLFISNIGGNAPSYIYRLMSELYHPDDHVL
binding [2]: no binding (only pancreas of diabetic db/db mice) | binding [1]: binds

B5: fatty acid binding protein 2 (protein, UniProt P55050 1-132)
chain: MAFDGTWKVDRNENYEKFMEKMGINVMKRKLGAHDNLKLTITQDGNKFTVKESSNFRNIDVVFELGVNFPYSLADGTELTGAWTIEGNKLIGKFTRVDNGKELIAVREVSGNELIQTYTYEGVEAKRFFKKE
binding [2]: no binding (only pancreas of diabetic db/db mice) | binding [1]: binds

B6: insulin receptor substrate 2 (protein, UniProt P81122 1-1321)
chain: MASAPLPGPPASAGGDGPNLNNNNNNNNHSVRKCGYLRKQKHGHKRFFVLRGPGTGGDEASAAGGSPPQPPRLEYYESEKKWRSKAGAPKRVIALDCCLNINKRADAKHKYLIALYTKDEYFAVAAENEQEQEGWYRALTDLVSEGRSGEGGSGTTGGSCSASLPGVLGGSAGAAGCDDNYGLVTPATAVYREVWQVNLKPKGLGQSKNLTGVYRLCLSARTIGFVKLNCEQPSVTLQLMNIRRCGHSDSFFFIEVGRSAVTGPGELWMQADDSVVAQNIHETILEAMKALKELFEFRPRSKSQSSGSSATHPISVPGARRHHHLVNLPPSQTGLVRRSRTDSLAATPPAAKCTSCRVRTASEGDGGAAGGAGTAGGRPMSVAGSPLSPGPVRAPLSRSHTLSAGCGGRPSKVTLAPAGGALQHSRSMSMPVAHSPPAATSPGSLSSSSGHGSGSYPLPPGSHPHLPHPLHHPQGQRPSSGSASASGSPSDPGFMSLDEYGSSPGDLRAFSSHRSNTPESIAETPPARDGSGGELYGYMSMDRPLSHCGRPYRRVSGDGAQDLDRGLRKRTYSLTTPARQRQVPQPSSASLDEYTLMRATFSGSSGRLCPSFPASSPKVAYNPYPEDYGDIEIGSHKSSSSNLGADDGYMPMTPGAALRSGGPNSCKSDDYMPMSPTSVSAPKQILQPRLAAALPPSGAAVPAPPSGVGRTFPVNGGGYKASSPAESSPEDSGYMRMWCGSKLSMENPDPKLLPNGDYLNMSPSEAGTAGTPPDFSAALRGGSEGLKGIPGHCYSSLPRSYKAPCSCSGDNDQYVLMSSPVGRILEEERLEPQATPGAGTFGAAGGSHTQPHHSAVPSSMRPSAIGGRPEGFLGQRCRAVRPTRLSLEGLQTLPSMQEYPLPTEPKSPGEYINIDFGEAGTRLSPPAPPLLASAASSSSLLSASSPASSLGSGTPGTSSDSRQRSPLSDYMNLDFSSPKSPKPSTRSGDTVGSMDGLLSPEASSPYPPLPPRPSTSPSSLQQPLPPAPGDLYRLPPASAATSQGPTAGSSMSSEPGDNGDYTEMAFGVAATPPQPIVAPPKPEGARVASPTSGLKRLSLMDQVSGVEAFLQVSQPPDPHRGAKVIRADPQGGRRRHSSETFSSTTTVTPVSPSFAHNSKRHNSASVENVSLRKSSEGSSTLGGGDEPPTSPGQAQPLVAVPPVPQARPWNPGQPGALIGCPGGSSSPMRRETSVGFQNGLNYIAIDVRGEQGSLAQSQPQPGDKNSWSRTRSLGGLLGTVGGSGASGVCGGPGTGALPSASTYASIDFLSHHLKEATVVKE
binding [2]: no binding (only pancreas of diabetic db/db mice) | binding [1]: binds

Continued, in another order:

binding [1]: binds
Molecule: CASK-interacting protein 2 (from UniProt Q8VHK1 1-1201)

binding [1]: binds
Molecule: structural maintenance of chromosomes 5 (from UniProt Q8CG46 1-1101)
binding [2]: no binding (only pancreas of diabetic db/db mice)

binding [1]: binds
Molecule: insulin receptor (from UniProt P15208 28-1372)
binding [2]: no binding (only pancreas of diabetic db/db mice)

binding [1]: binds
Molecule: negative regulator of ubiquitin-like proteins 1 (from UniProt P54729 1-614)
binding [2]: no binding (only pancreas of diabetic db/db mice)

binding [1]: binds
Molecule: p53 and DNA damage regulated 1 (from UniProt P59048 1-133)

binding [1]: binds
Molecule: DEAD (Asp-Glu-Ala-Asp) box helicase 3, X-linked (from UniProt Q62167 1-662) (enzyme)
binding [2]: no binding (only pancreas of diabetic db/db mice)

binding [1]: binds
B2: F-box protein 24 (protein, UniProt Q9D417 1-589)
chain: MVKRSCPSCGLEAGSEKKERGNPISVQLFPPELVEHIVSFLPVKDLVALGQTCHYFHEVCDAEGVWRRICRRLSPRIRDQSSGARPWKRAAILNYTKGLYFQAFGGRRRCLSKSVAPMLAHGYRRFLPTKDHVFILDYVGTLFFLKNALVSSTLGQIQWKRACRYVVLCRGAKDFASDPRCDTVYRKYLYVLATREQPAVVGTTGSRACDCVEVYLQSSGQRVFKMTFHHSMSFKQIVLVGQETQRALLLLTEEGKIYSLVVNETQLDQPRSYTVQLALRKVSRCLPHLRVTCMASNQSSTLYITGGTLIPRKQVPKAAELRAPDPPDQGGVYFEVHTPGVYRDLFGTLQAFDPLDHQMPLALSLPAKVLFCALGYNHLGLVDEFGRIFMQGNNRYGQLGTGDKMDRGEPTQVHYLQRPIALWCGLNHSLVLSQTSDFSKELLGCGCGAGGRLPGWPKGSASFVKLHIKVPLCACSLCSTRECLYMLSSHDIEQCPVYRDLPASRVGGSPEPSQGAGAPQDPGGTAQACEEYLSQIHSCPTLQDRMEKMKEIVGWMPLMAAQKDFFWEALDMLQRAAGGAGPDTSTPES

binding [1]: binds
B3: G protein-coupled receptor 101 (receptor, UniProt Q80T62 1-511)
chain: MPPSCTNSTQENNGSRVCLPLSKMPISVAHGIIRSVVLLVILGVAFLGNVVLGYVLHRKPNLLQVTNRFIFNLLVTDLLQVALVAPWVVSTAIPFFWPLNIHFCTALVSLTHLFAFASVNTIVVVSVDRYLTIIHPLSYPSKMTNRRSYILLYGTWIAAFLQSTPPLYGWGHATFDDRNAFCSMIWGASPAYTVVSVVSFLVIPLGVMIACYSVVFGAARRQQALLYKAKSHRLEVRVEDSVVHENEEGAKKRDEFQDKNEFQGQDGGGQAEAKGSSSMEESPMVAEGSSQKTGKGSLDFSAGIMEGKDSDEVSNGSMEGLEVITEFQASSAKADTGRIDANQCNIDVGEDDVEFGMDEIHFNDDVEAMRIPESSPPSRRNSTSDPPLPPCYECKAARVIFVIISTYVLSLGPYCFLAVLAVWVDIDTRVPQWVITIIIWLFFLQCCIHPYVYGYMHKSIKKEIQEVLKKLICKKSPPVEDSHPDLHETEAGTEGGIEGKAVPSHDSATSP
binding [2]: no binding (only pancreas of diabetic db/db mice)

No constants are given. Whether binding was seen depends on the method and setting. In cells and extracts the contact can be indirect. Here binding means that the protein was enriched with, or labelled near, the bait; the list need not be complete. For some of these results: No binding means not detected with the bait. One block for each molecule: values may come before it.
